Data reported in PubChem BioAssay AID624297 (National Center for Advancing Translational Sciences (NCATS), 2012).
Hit rate of the full screen: of about 340,000 compounds, about 6,200 (1.8%) were called active. Inconclusive results, whose numbers are uncertain, are shown with a selection of clear calls. The call rests on the fitted dose curve; in most records, active means well fitted activation curve with a large enough effect; inconclusive means small, poorly fitted or top-dose-only effect; inactive means no such curve, though single readings can be large or run the other way. A potency beside an inconclusive call is a rough fit, not a confirmed value.

Test: A quantitative high throughput screen for small molecules that induce DNA re-replication in SW480 colon adenocarcinoma cells. Further: nearly all actives have a fitted effect of over 55% in size.
Details: Hoechst DNA content imaging, 48 h; series mostly up to 46.1 µM
How it was run: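 Treated cells incubate 48 hr (37 C, 5% CO2), are stained 40 min with Hoechst, and nuclear fluorescence is enumerated; a rise in nuclei with high DNA signal marks re-replication.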
Potency means the concentration at half of the fitted maximal effect.

Structure (SMILES) | Potency
COc1cc(C(C(=O)NC2CCCC2)N(C(=O)c2snc(C(N)=O)c2N)c2ccccc2)cc(OC)c1OC (centres undefined) | inconclusive: 29.1 µM [activator, single point]
CCOc1ccccc1N(CC(=O)Nc1ccc(OC)c(OC)c1)S(=O)(=O)c1ccccc1 | inconclusive: 23.1 µM [activator, single point]
CCOc1ccc(C(=O)C(CN2CCOCC2)c2ccccc2)cc1 (centres undefined) | active: 5.17 µM
CC(C)Cn1c(SC(C)C(=O)NCC2CCCO2)nc2ccc(Cl)cc2c1=O (centres undefined) | inactive
C=C(C)COc1ccc(-c2nc(N)ncc2-c2ccccc2OC)c(O)c1 | inconclusive: 29.1 µM [activator, single point]
COc1ccc(/C=N/Nc2nc(N3CCCC3)nc(N3CCCC3)n2)cc1 | inconclusive: 29.1 µM [activator, single point]
CCOc1ccc(NC(=S)N(CCc2c(C)[nH]c3ccc(C)cc23)Cc2cccnc2)cc1 | inconclusive: 29.1 µM [activator, single point]
CCN(c1ccccc1)S(=O)(=O)c1cc(C(=O)OC(C)C(=O)Nc2ccc3c(c2)OCCO3)ccc1C (centres undefined) | inconclusive: 0.731 µM [activator, partial curve, poor fit]
Cc1ccc(S(=O)(=O)N2CCCC2)cc1C(=O)NCc1ccccn1 | inactive
CCOc1ccc(-n2c(SCC(=O)NCc3ccco3)nnc2-c2c[nH]c3ccccc23)cc1 | inconclusive: 29.1 µM [activator, partial curve, poor fit]
COc1ccc(-c2c(C)nn3c(N4CCOCC4)cc(C)nc23)cc1OC | inactive
Cc1ccc(S(=O)(=O)Nc2ccc(-c3nc4ccc(C)cc4s3)cc2)cc1 | inconclusive: 0.461 µM [activator, full curve, poor fit]
COc1ccc(N2CCN(C3CCCN(S(=O)(=O)c4ccc(C)cc4C)C3)CC2)cc1 (centres undefined) | inconclusive: 4.61 µM [activator, partial curve, poor fit]
CCOC(=O)/C(=C/c1c[nH]c2ccccc12)NC(C)=O | inactive
C/C(=N\NC(=O)c1cc(O)ccc1O)c1cccc(NC(=O)c2cccc(Cl)c2)c1 | inactive
COc1ccc(-n2nc3c(c2NC(=O)CCl)CSC3)cc1 | inconclusive: 18.4 µM [activator, single point]
Cc1ccccc1N=C(NO)c1nonc1N | inactive
CCOc1ccc(/C=N/NC(=O)C(C)N(c2ccc(OC)cc2)S(C)(=O)=O)cc1OCC (centres undefined) | inconclusive: 18.4 µM [activator, single point]
CCc1ccc(NC(=O)C2CCCN(S(=O)(=O)c3cccs3)C2)cc1 (centres undefined) | inconclusive: 23.1 µM [activator, single point]

Looked up by structure from the list above (2):
Structure (SMILES) | Potency
CCc1ccc(NC(=O)C2CCCN(S(=O)(=O)c3cccs3)C2)cc1 (centres undefined) | inconclusive: 23.1 µM [activator, single point]
CCOc1ccccc1N(CC(=O)Nc1ccc(OC)c(OC)c1)S(=O)(=O)c1ccccc1 | inconclusive: 23.1 µM [activator, single point]
